{"sequences": {"note": "Chains of the proteins cited; added tags and fusions are not shown. Lines headed by an entry give the natural chain unless they say otherwise; changes in a name come on top.", "UniProt Q9QZM0": "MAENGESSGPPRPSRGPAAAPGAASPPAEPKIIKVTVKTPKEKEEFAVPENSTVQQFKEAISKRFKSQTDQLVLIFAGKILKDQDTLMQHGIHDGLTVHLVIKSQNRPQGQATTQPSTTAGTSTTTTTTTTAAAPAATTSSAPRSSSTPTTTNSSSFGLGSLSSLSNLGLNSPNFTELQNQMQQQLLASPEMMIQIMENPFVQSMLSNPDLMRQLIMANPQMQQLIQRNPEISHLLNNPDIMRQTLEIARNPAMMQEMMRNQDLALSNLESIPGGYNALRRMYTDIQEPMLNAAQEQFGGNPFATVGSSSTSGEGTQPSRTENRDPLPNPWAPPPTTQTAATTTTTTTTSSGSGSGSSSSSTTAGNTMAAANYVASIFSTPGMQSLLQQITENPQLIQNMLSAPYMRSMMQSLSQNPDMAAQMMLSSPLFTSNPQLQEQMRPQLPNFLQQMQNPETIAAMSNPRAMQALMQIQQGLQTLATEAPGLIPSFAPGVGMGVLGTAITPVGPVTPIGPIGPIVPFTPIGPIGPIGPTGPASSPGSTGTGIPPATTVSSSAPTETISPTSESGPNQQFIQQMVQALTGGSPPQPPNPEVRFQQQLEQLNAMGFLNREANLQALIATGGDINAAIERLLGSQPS", "UniProt P42859": "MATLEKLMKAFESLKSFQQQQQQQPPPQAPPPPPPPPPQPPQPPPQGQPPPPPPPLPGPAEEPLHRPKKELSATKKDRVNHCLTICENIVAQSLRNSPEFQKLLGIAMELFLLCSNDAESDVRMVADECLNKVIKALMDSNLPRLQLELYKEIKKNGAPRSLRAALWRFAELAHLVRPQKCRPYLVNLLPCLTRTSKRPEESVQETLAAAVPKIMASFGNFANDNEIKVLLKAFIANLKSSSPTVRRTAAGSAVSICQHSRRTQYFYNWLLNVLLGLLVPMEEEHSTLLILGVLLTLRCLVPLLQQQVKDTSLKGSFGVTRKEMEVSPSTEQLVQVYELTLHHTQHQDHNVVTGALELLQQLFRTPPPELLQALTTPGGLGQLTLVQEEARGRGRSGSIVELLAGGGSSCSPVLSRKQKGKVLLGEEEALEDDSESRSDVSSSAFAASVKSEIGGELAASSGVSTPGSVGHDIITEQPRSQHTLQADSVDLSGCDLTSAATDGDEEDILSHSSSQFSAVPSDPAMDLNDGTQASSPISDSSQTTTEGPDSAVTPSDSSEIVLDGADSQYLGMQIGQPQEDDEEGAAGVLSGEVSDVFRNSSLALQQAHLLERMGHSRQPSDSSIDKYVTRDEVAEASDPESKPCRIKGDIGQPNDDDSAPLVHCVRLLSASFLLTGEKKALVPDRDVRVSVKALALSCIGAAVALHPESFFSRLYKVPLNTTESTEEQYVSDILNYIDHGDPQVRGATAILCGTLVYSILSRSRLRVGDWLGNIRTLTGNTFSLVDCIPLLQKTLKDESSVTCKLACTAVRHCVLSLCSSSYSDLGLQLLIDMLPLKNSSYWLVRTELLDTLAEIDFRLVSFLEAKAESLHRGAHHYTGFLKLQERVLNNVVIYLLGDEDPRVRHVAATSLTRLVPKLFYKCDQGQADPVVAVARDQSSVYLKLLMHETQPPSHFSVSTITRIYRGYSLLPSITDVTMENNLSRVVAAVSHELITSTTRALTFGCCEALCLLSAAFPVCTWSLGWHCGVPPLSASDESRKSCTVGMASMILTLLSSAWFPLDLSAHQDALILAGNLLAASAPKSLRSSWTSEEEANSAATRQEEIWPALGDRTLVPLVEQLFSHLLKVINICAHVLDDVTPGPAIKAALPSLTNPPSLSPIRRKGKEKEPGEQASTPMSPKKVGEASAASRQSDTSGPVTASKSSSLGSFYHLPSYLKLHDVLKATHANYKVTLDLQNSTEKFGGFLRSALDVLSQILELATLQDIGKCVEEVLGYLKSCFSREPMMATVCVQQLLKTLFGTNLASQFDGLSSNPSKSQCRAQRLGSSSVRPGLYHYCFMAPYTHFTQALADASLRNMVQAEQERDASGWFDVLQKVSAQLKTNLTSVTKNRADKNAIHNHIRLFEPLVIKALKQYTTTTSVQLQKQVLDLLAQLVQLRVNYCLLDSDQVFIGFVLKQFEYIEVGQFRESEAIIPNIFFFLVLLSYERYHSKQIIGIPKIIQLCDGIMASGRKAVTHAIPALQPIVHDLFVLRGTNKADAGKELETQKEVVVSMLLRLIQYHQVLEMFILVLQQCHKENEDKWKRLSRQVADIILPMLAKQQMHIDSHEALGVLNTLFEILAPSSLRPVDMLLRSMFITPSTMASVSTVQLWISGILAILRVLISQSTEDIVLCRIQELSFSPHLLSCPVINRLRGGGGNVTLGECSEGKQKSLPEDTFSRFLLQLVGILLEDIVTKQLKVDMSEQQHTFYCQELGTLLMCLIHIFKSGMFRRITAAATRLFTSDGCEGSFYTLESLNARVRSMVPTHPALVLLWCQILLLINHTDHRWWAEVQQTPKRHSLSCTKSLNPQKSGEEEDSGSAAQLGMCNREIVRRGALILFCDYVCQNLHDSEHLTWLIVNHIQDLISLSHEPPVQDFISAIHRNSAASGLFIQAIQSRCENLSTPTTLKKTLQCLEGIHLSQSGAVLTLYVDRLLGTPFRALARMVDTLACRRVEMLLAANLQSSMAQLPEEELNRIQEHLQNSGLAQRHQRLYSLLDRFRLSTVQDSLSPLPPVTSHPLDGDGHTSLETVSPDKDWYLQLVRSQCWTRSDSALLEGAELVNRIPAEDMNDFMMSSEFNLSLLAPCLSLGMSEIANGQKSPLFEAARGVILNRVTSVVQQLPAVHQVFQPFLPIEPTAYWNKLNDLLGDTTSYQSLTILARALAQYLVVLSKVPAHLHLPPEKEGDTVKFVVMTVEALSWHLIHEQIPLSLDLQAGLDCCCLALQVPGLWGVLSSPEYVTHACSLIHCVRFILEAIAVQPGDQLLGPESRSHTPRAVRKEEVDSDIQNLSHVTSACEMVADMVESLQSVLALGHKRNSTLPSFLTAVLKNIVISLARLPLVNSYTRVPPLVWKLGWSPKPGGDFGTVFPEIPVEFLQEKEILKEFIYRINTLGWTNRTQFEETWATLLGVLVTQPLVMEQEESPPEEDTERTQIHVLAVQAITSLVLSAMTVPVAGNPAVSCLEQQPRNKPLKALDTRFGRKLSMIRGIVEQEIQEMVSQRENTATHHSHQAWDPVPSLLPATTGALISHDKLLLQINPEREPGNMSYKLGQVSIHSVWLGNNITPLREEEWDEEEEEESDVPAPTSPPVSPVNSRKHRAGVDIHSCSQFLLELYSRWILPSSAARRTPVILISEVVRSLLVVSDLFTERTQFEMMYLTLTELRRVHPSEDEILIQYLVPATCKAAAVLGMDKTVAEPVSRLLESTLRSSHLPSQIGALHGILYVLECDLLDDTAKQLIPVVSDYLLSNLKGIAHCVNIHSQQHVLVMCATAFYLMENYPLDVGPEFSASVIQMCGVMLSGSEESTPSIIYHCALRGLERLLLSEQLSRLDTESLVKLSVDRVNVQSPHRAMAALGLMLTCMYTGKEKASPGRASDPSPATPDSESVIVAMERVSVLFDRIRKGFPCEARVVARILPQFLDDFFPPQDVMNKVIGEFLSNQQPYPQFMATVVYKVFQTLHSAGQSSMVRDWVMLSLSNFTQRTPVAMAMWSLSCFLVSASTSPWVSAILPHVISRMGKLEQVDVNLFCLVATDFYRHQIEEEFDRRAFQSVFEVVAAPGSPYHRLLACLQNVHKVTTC"}, "source": "paper PMC5003816", "key": {"[1]": {"target": "UBQLN2 (mouse, endogenous, wild type) (mouse (endogenous in brain and MEFs)) (UniProt Q9QZM0)", "experiment": "co-IP; reciprocal IP of HTT and UBQLN2 from brains of R6/2 transgenic and HdhQ150 knockin mice once HTT had aggregated; aggregated HTT and HSP70 in the stacking gel"}, "[2]": {"target": "UBQLN2 (mouse, endogenous, wild type) (mouse (endogenous in brain and MEFs)) (UniProt Q9QZM0)", "experiment": "condition: only SDS-soluble HTT, before HTT had aggregated; co-IP; reciprocal IP of HTT and UBQLN2 from brains of R6/2 and HdhQ150 mice: SDS-soluble HTT, ages before HTT had aggregated"}}, "note": "Results are given in words; binding and its absence hold for the method and conditions named. In cells and extracts the contact can be indirect. For some assays here: A result given as binding can be weak or reduced; the word gives no strength.", "data": [{"substance": "mutant Huntingtin of the HdhQ150 knockin mouse (from UniProt P42859)", "values": [{"measurement": "binding", "setting": "[1]", "result": "binds"}, {"measurement": "binding", "setting": "[2]", "result": "no binding"}]}]}
